Test results taken from patent publication US6528618B1, “Anti-inflammatory peptides derived from C-reactive protein” (Yeda Research and Development Co. Ltd., priority 1997, dated 2003).
Some results were stated once for a whole list of compounds, not compound by compound. Where a SMILES comes first, the peptide text is derived from it.

Assays:
[1] = molecular target: T1, human leukocyte cathepsin G (hCG) (Homo sapiens, UniProt P08311); experiment: In vitro inhibition of hCG (cleavage of Suc-AAPF-NA); format: biochemical; details: for folds less potent than peptide 6 in hCG inhibition: relative to peptide 6
T1 construct: Neutrophils (1.4 billion) were isolated from whole blood obtained from a single healthy laboratory donor; from tissue; host or cells: neutrophils from whole blood of a single healthy donor
T1 sequence (P08311 21-243 limits assumed): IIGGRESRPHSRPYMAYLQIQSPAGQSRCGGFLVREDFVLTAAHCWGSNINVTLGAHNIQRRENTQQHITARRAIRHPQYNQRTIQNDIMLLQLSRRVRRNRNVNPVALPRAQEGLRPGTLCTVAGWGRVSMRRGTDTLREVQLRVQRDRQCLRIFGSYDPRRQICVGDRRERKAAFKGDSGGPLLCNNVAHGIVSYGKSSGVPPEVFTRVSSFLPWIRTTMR
Method: (§1) The enzymatic activity was assayed with MeOSuc-AAPV-NA for hLE determination and Suc-AAPF-NA for hCG determination (both in 100 mM Hepes buffer, pH 7.4, containing 0.05% of the […] detergent Brij-35). The activities of the individual enzymatic fractions were 100% free from cross-contamination. […] The fractions containing hLE and hCG were dialyzed each against 0.1% pyridinium acetate, pH 5.3, divided into 20 aliquots, lyophilized, and stored at −20 ° C. until use.
vi) Inhibition experiments with hCG: Similar conditions to hLE inhibition experiments were used except the substrate: 80 μL of 1.80 mM Suc-AAPF-NA. The enzyme was dissolved in 800 μL buffer, and the reaction was monitored every 6 min for 1 hour. The final volume was 240 μL containing: 5% DMSO, 1-100 μM peptide, 600 μM substrate, and 1.2 μg enzyme (about 40 picomol).
For hCG, V is determined by fitting a quadratic equation to the total kinetic data (60 min), using the least squares method and calculating V at t=0.
The hCG inhibitory capability of CRP-derived peptides was evaluated by inhibiting the enzymatic cleavage of Suc-AAPF-NA as described in Materials and Methods (section vi).

[2] = molecular target: T2, human leukocyte elastase (hLE) (Homo sapiens, UniProt P08246); experiment: In vitro inhibition of hLE (cleavage of MeOSuc-AAPV-NA); format: biochemical
T2 construct: Neutrophils (1.4 billion) were isolated from whole blood obtained from a single healthy laboratory donor; from tissue; host or cells: neutrophils from whole blood of a single healthy donor
T2 sequence (P08246 30-247 limits assumed): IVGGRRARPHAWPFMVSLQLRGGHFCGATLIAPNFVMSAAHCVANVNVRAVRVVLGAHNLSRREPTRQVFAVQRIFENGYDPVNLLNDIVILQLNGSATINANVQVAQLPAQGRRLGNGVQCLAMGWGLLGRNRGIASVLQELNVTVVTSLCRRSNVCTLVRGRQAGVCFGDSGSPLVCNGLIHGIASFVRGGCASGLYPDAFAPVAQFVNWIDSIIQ
Method: as §1
(v) Inhibition experiments with hLE: Peptides were dissolved in 100 mM Hepes buffer pH 7.4 containing 0.1% Brij-35 with 10%. DMSO to yield 300 μM solutions, which were used to make further dilutions with the same buffer, and 80 μL aliquots were added in duplicates to 96-well plates. The substrate, 600 μM MeOSuc-AAPV-NA in the same buffer with 5% DMSO, was added to each well in addition to the blank wells, and the plate was placed in the plate reader equilibrated to 37 C (Dynateck MR-6000). Lyophilized aliquots of hLE were dissolved in 1600 μL of 100 mM Hepes buffer without DMSO, and 80 μL of the enzyme solution was added to the peptides and substrate to initiate the reaction. […] The final volume was 240 μL containing: 5% DMSO, 1-100 μM of peptide, 200 μM substrate, and 0.75 μg (˜25 picomol) enzyme.
(viii) Calculations: For hLE, V is determined by fitting a linear equation to the first 6 time-points (10 min) of the kinetics data using the least squares method. […] Several inhibitor concentration in duplicates and two control wells were used to fit a linear equation to graphs of Vo/Vi−1 vs. [I] for each inhibitor using the least squares method (8 data points for each inhibitor). From calculating the error in the slope of the equation, the relative error for Ki was deduced:
Ki={slope*(1+[S]/Km)}^−1because Ki=[I]*{(1+[S]/Km)*(Vo/Vi−1)}^−1.
The hLE inhibitory capability of CRP-derived peptides was evaluated by inhibiting the enzymatic cleavage of MeOSuc-AAPV-NA as described in Materials and Methods (section v).

SMILES | hCG inhibitory activity (in words) [1] | folds less potent than peptide 6 in hCG inhibition [1] | hLE inhibitory activity (in words) [2]
CC[C@H](C)[C@H](NC(=O)[C@H](CO)NC(=O)[C@H](Cc1ccc(O)cc1)NC(=O)CNC(=O)[C@H](CCCNC(=N)N)NC(=O)[C@@H](NC(=O)[C@H](CO)NC(=O)[C@H](CO)NC(=O)[C@H](CC(C)C)NC(=O)[C@H](CCC(=O)O)NC(=O)[C@@H](NC(=O)[C@H](Cc1ccc(O)cc1)NC(=O)[C@H](Cc1ccccc1)NC(=O)[C@H](Cc1c[nH]cn1)NC(=O)[C@@H](N)CC(C)C)[C@@H](C)O)[C@@H](C)O)C(=O)O [Peptide 1, Leu-His-Phe-Tyr-Thr-Glu-Leu-Ser-Ser-Thr-Arg-Gly-Tyr-Ser-Ile] (H-LHFYTELSSTRGYSI-OH) | inactive | – | –
CC[C@H](C)[C@H](NC(=O)[C@H](CO)NC(=O)[C@H](Cc1ccc(O)cc1)NC(=O)CNC(=O)[C@H](CCCNC(=N)N)NC(=O)[C@@H](NC(=O)[C@H](CO)NC(=O)[C@H](CO)NC(=O)[C@H](CC(C)C)NC(=O)[C@@H](N)CCC(=O)O)[C@@H](C)O)C(=O)N[C@@H](Cc1ccccc1)C(=O)N[C@@H](CO)C(=O)N[C@@H](Cc1ccc(O)cc1)C(=O)N[C@@H](C)C(=O)N[C@H](C(=O)O)[C@@H](C)O [Peptide 2, Glu-Leu-Ser-Ser-Thr-Arg-Gly-Tyr-Ser-Ile-Phe-Ser-Tyr-Ala-Thr] (H-ELSSTRGYSIFSYAT-OH) | inactive | – | –
CC[C@H](C)[C@H](NC(=O)[C@H](CO)NC(=O)[C@H](Cc1ccc(O)cc1)NC(=O)CNC(=O)[C@@H](N)CCCNC(=N)N)C(=O)N[C@@H](Cc1ccccc1)C(=O)N[C@@H](CO)C(=O)N[C@@H](Cc1ccc(O)cc1)C(=O)N[C@@H](C)C(=O)N[C@H](C(=O)N[C@@H](CCCCN)C(=O)N[C@@H](CCCNC(=N)N)C(=O)N[C@@H](CCC(N)=O)C(=O)N[C@@H](CC(=O)O)C(=O)N[C@@H](CC(N)=O)C(=O)O)[C@@H](C)O [Peptide 3, Arg-Gly-Tyr-Ser-Ile-Phe-Ser-Tyr-Ala-Thr-Lys-Arg-Gln-Asp-Asn] (H-RGYSIFSYATKRQDN-OH) | inactive | – | –
CC[C@H](C)[C@H](NC(=O)[C@H](CC(C)C)NC(=O)[C@@H](NC(=O)[C@H](CCC(=O)O)NC(=O)[C@H](CC(N)=O)NC(=O)[C@H](CC(=O)O)NC(=O)[C@H](CCC(N)=O)NC(=O)[C@H](CCCNC(=N)N)NC(=O)[C@H](CCCCN)NC(=O)[C@@H](NC(=O)[C@H](C)NC(=O)[C@H](Cc1ccc(O)cc1)NC(=O)[C@H](CO)NC(=O)[C@@H](N)Cc1ccccc1)[C@@H](C)O)[C@@H](C)CC)C(=O)N[C@@H](Cc1ccccc1)C(=O)O [Peptide 4, Phe-Ser-Tyr-Ala-Thr-Lys-Arg-Gln-Asp-Asn-Glu-Ile-Leu-Ile-Phe] (H-FSYATKRQDNEILIF-OH) | inactive | – | –
CC[C@H](C)[C@H](NC(=O)[C@H](CC(=O)O)NC(=O)[C@H](CCCCN)NC(=O)[C@H](CO)NC(=O)[C@H](Cc1c[nH]c2ccccc12)NC(=O)[C@H](Cc1ccccc1)NC(=O)[C@@H](NC(=O)[C@H](CC(C)C)NC(=O)[C@@H](NC(=O)[C@H](CCC(=O)O)NC(=O)[C@H](CC(N)=O)NC(=O)[C@H](CC(=O)O)NC(=O)[C@H](CCC(N)=O)NC(=O)[C@H](CCCNC(=N)N)NC(=O)[C@@H](N)CCCCN)[C@@H](C)CC)[C@@H](C)CC)C(=O)O [Peptide 5, Lys-Arg-Gln-Asp-Asn-Glu-Ile-Leu-Ile-Phe-Trp-Ser-Lys-Asp-Ile] (H-KRQDNEILIFWSKDI-OH; N-terminus and C-terminus assumed) | – | 600-800 folds | –
CC[C@H](C)[C@H](NC(=O)[C@H](CC(=O)O)NC(=O)[C@H](CCCCN)NC(=O)[C@H](CO)NC(=O)[C@@H](N)Cc1c[nH]c2ccccc12)C(=O)NCC(=O)N[C@@H](Cc1ccc(O)cc1)C(=O)N[C@@H](CO)C(=O)N[C@@H](Cc1ccccc1)C(=O)N[C@H](C(=O)N[C@H](C(=O)NCC(=O)NCC(=O)N[C@@H](CO)C(=O)N[C@@H](CCC(=O)O)C(=O)O)C(C)C)[C@@H](C)O [Peptide 7, Trp-Ser-Lys-Asp-Ile-Gly-Tyr-Ser-Phe-Thr-Val-Gly-Gly-Ser-Glu] (H-WSKDIGYSFTVGGSE-OH) | inactive | – | inactive
CC[C@H](C)[C@H](NC(=O)[C@H](CCC(=O)O)NC(=O)[C@H](CO)NC(=O)CNC(=O)CNC(=O)[C@@H](NC(=O)[C@@H](NC(=O)[C@H](Cc1ccccc1)NC(=O)[C@H](CO)NC(=O)[C@H](Cc1ccc(O)cc1)NC(=O)CN)[C@@H](C)O)C(C)C)C(=O)N[C@@H](CC(C)C)C(=O)N[C@@H](Cc1ccccc1)C(=O)N[C@@H](CCC(=O)O)C(=O)N[C@H](C(=O)O)C(C)C [Peptide 8, Gly-Tyr-Ser-Phe-Thr-Val-Gly-Gly-Ser-Glu-Ile-Leu-Phe-Glu-Val] (H-GYSFTVGGSEILFEV-OH) | inactive | – | inactive
CC[C@H](C)[C@H](NC(=O)[C@H](CCC(=O)O)NC(=O)[C@H](CO)NC(=O)CNC(=O)CNC(=O)[C@@H](N)C(C)C)C(=O)N[C@@H](CC(C)C)C(=O)N[C@@H](Cc1ccccc1)C(=O)N[C@@H](CCC(=O)O)C(=O)N[C@H](C(=O)N1CCC[C@H]1C(=O)N[C@@H](CCC(=O)O)C(=O)N[C@H](C(=O)N[C@H](C(=O)N[C@H](C(=O)O)C(C)C)[C@@H](C)O)C(C)C)C(C)C [Peptide 9, Val-Gly-Gly-Ser-Glu-Ile-Leu-Phe-Glu-Val-Pro-Glu-Val-Thr-Val] (H-VGGSEILFEVPEVTV-OH) | inactive | – | inactive
CC[C@H](C)[C@H](N)C(=O)N[C@@H](CC(C)C)C(=O)N[C@@H](Cc1ccccc1)C(=O)N[C@@H](CCC(=O)O)C(=O)N[C@H](C(=O)N1CCC[C@H]1C(=O)N[C@@H](CCC(=O)O)C(=O)N[C@H](C(=O)N[C@H](C(=O)N[C@H](C(=O)N[C@@H](C)C(=O)N1CCC[C@H]1C(=O)N[C@H](C(=O)N[C@@H](Cc1c[nH]cn1)C(=O)N[C@H](C(=O)O)[C@@H](C)CC)C(C)C)C(C)C)[C@@H](C)O)C(C)C)C(C)C [Peptide 10, Ile-Leu-Phe-Glu-Val-Pro-Glu-Val-Thr-Val-Ala-Pro-Val-His-Ile] (H-ILFEVPEVTVAPVHI-OH; N-terminus and C-terminus assumed) | – | 600-800 folds | –
CC[C@H](C)[C@H](NC(=O)[C@H](CC(=O)O)NC(=O)[C@H](CCCCN)NC(=O)[C@H](CO)NC(=O)[C@H](Cc1c[nH]c2ccccc12)NC(=O)[C@H](Cc1ccccc1)NC(=O)[C@@H](NC(=O)[C@H](CC(C)C)NC(=O)[C@@H](NC(=O)[C@@H](N)CCC(=O)O)[C@@H](C)CC)[C@@H](C)CC)C(=O)O [Peptide 14, Glu-Ile-Leu-Ile-Phe-Trp-Ser-Lys-Asp-Ile] (H-EILIFWSKDI-OH; N-terminus and C-terminus assumed) | – | – | inactive
